According to the supplement of paper PMC7877785:
± gives the uncertainty stated by the source. Many entries were measured with a wide error.

Assay: self-splicing fitness, log relative to wild type (ln ratio); higher = more splicing; Tetrahymena group I intron in knt gene, E. coli kanamycin selection, DiMSum; sequences stand for … in CUCUCU…GGAGGGAAAAGUUAUCAGGCAUGCACCUGGUAGCUAGUCUUUAAACCAAUAGAUUGCAUCGGUUUAAAAGGCAAGACCGUCAAAUUGCGGGAAAGGGGUCAACAGCCGUUCAGUACCAAGUCUCAGGGGAAACUUUGAGAUGGCCUUGCAAAGGGUAUGGUAAUAAGCUGACGGACAUGGUCCUAACCACGCAGCCAAGUCCUAAGUCAACAGAUCUUCUGUUGAUAUGGAUGCAGUUCACAGACUAAAUGUCGGUCGGGGAAGAUGUAUUCUUCUCAUAAGAUAUAGUCGGACCUCUCCUUAAUGGGAGCUAGCGGAUGAAGUGAUGCAACACUGGAGCCGCUGGGAACUAAUUUGUAUGCGAAAGUAUAUUGAUUAGUUUUGGAGUACUCGUGGUCG
In short: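 Fitness was computed with DiMSum as the error-weighted combination of replicate fold changes, kanamycin versus none, each normalised to wild type. The library randomised all eight intron nucleotides of the P1ex region, with the intron placed in the knt kanamycin-resistance gene on pET-22b(+) in E. coli BL21(DE3). Six replicate transformations were grown overnight at 37°C or 30°C on LB agar with or without 25 μg/mL kanamycin, plus 100 μg/mL carbenicillin, 50 μM IPTG and 0.2% rhamnose. Pooled colonies were amplicon-sequenced on an Illumina HiSeq 2500.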

Sequence: AACAAGCAAUAUUACGUUAC
- self-splicing fitness (ln) (30 °C): -3.54 ± 0.11
- self-splicing fitness (ln) (37 °C): -3.01 ± 0.18

Sequence: UGAGAGCAAUAUUACGAGGU
- self-splicing fitness (ln) (30 °C): -4.2 ± 0.59
- self-splicing fitness (ln) (37 °C): -2.72 ± 0.54

Sequence: UAGUAGCAAUAUUACGAGUU
- self-splicing fitness (ln) (30 °C): -3.96 ± 0.28
- self-splicing fitness (ln) (37 °C): -2.75 ± 0.23

Sequence: UUAUAGCAAUAUUACGCCAC
- self-splicing fitness (ln) (30 °C): -0.767 ± 0.54

Sequence: CGGAAGCAAUAUUACGAGUA
- self-splicing fitness (ln) (30 °C): -3.83 ± 0.6

Sequence: GGGCAGCAAUAUUACGCUCC
- self-splicing fitness (ln) (37 °C): 0.241 ± 0.7

Sequence: GUGAAGCAAUAUUACGGAGC
- self-splicing fitness (ln) (30 °C): -4.68 ± 0.46
- self-splicing fitness (ln) (37 °C): -1.38 ± 0.16

Sequence: CGUAAGCAAUAUUACGCAAC
- self-splicing fitness (ln) (30 °C): -4.51 ± 0.51
- self-splicing fitness (ln) (37 °C): -1.74 ± 0.79

Sequence: GGGCAGCAAUAUUACGCUGC
- self-splicing fitness (ln) (30 °C): -3.38 ± 0.77
- self-splicing fitness (ln) (37 °C): -2.23 ± 0.56

Sequence: UGGUAGCAAUAUUACGUUAC
- self-splicing fitness (ln) (37 °C): -1.78 ± 0.65

Sequence: UCUUAGCAAUAUUACGAGAU
- self-splicing fitness (ln) (30 °C): -4.12 ± 1
- self-splicing fitness (ln) (37 °C): -2.73 ± 0.54

Sequence: CGGUAGCAAUAUUACGCGAC
- self-splicing fitness (ln) (30 °C): -2.79 ± 1.2
- self-splicing fitness (ln) (37 °C): -0.988 ± 0.68

Sequence: UCAUAGCAAUAUUACGCACG
- self-splicing fitness (ln) (30 °C): -2.05 ± 0.11
- self-splicing fitness (ln) (37 °C): -0.462 ± 0.13

Sequence: AGAAAGCAAUAUUACGCAUC
- self-splicing fitness (ln) (37 °C): -1.47 ± 0.54

Sequence: AGAGAGCAAUAUUACGGGGU
- self-splicing fitness (ln) (30 °C): -4.63 ± 0.59

Sequence: AGCUAGCAAUAUUACGUUGG
- self-splicing fitness (ln) (30 °C): -3.61 ± 0.19
- self-splicing fitness (ln) (37 °C): -2.03 ± 0.18

Sequence: GGGAAGCAAUAUUACGCUCC
- self-splicing fitness (ln) (30 °C): -3.42 ± 0.77
- self-splicing fitness (ln) (37 °C): -2.39 ± 1.1

Sequence: UACGAGCAAUAUUACGCCAC
- self-splicing fitness (ln) (30 °C): -3.89 ± 0.6

Sequence: CGUGAGCAAUAUUACGUCUU
- self-splicing fitness (ln) (37 °C): -2.15 ± 0.8

Sequence: UUUAAGCAAUAUUACGAAGU
- self-splicing fitness (ln) (30 °C): -2.65 ± 1.1

Sequence: AGCCAGCAAUAUUACGUUAA
- self-splicing fitness (ln) (30 °C): -2.44 ± 0.17
- self-splicing fitness (ln) (37 °C): -2.59 ± 0.2

Sequence: AAAGAGCAAUAUUACGCCUC
- self-splicing fitness (ln) (37 °C): -0.9 ± 0.53

Sequence: UUAGAGCAAUAUUACGCAUU
- self-splicing fitness (ln) (37 °C): -1.37 ± 1.2

Sequence: AGAGAGCAAUAUUACGGUUA
- self-splicing fitness (ln) (30 °C): -3.1 ± 0.25
- self-splicing fitness (ln) (37 °C): -1.83 ± 0.21

Sequence: GGGGAGCAAUAUUACGUUUG
- self-splicing fitness (ln) (30 °C): -2.97 ± 0.53

Sequence: CAGGAGCAAUAUUACGCCGG
- self-splicing fitness (ln) (30 °C): -3.78 ± 0.52

Sequence: GGGGAGCAAUAUUACGGGCG
- self-splicing fitness (ln) (30 °C): -1.52 ± 1.2
- self-splicing fitness (ln) (37 °C): -2.17 ± 0.8

Sequence: CGGGAGCAAUAUUACGAGGG
- self-splicing fitness (ln) (37 °C): -2.23 ± 0.5

Sequence: AGCCAGCAAUAUUACGCCGG
- self-splicing fitness (ln) (30 °C): -4.16 ± 0.73

Sequence: ACAUAGCAAUAUUACGAGAG
- self-splicing fitness (ln) (30 °C): -3.57 ± 0.28
- self-splicing fitness (ln) (37 °C): -2.55 ± 0.18

Sequence: UUGGAGCAAUAUUACGGCGA
- self-splicing fitness (ln) (37 °C): -2.41 ± 0.76

Sequence: CCCAAGCAAUAUUACGAUAC
- self-splicing fitness (ln) (37 °C): -4.17 ± 0.72

Sequence: AGCCAGCAAUAUUACGAUCA
- self-splicing fitness (ln) (30 °C): -5.04 ± 0.72

Sequence: GUGAAGCAAUAUUACGUUUG
- self-splicing fitness (ln) (30 °C): -2.25 ± 0.09
- self-splicing fitness (ln) (37 °C): -1.85 ± 0.12

Sequence: GUUUAGCAAUAUUACGGAAC
- self-splicing fitness (ln) (37 °C): -1.59 ± 0.56

Sequence: AGGCAGCAAUAUUACGAACC
- self-splicing fitness (ln) (30 °C): -0.0701 ± 0.18
- self-splicing fitness (ln) (37 °C): -1.03 ± 0.2

Sequence: UCCGAGCAAUAUUACGCGCC
- self-splicing fitness (ln) (37 °C): -1.61 ± 0.84

Sequence: GUGUAGCAAUAUUACGUGGC
- self-splicing fitness (ln) (37 °C): -3.08 ± 0.6

Sequence: GUGAAGCAAUAUUACGCAGC
- self-splicing fitness (ln) (30 °C): -0.868 ± 1.4
- self-splicing fitness (ln) (37 °C): -1.37 ± 0.87

Sequence: GAGUAGCAAUAUUACGUCUC
- self-splicing fitness (ln) (30 °C): -3.39 ± 0.65
- self-splicing fitness (ln) (37 °C): -3.55 ± 0.6

Sequence: UUGGAGCAAUAUUACGAUUG
- self-splicing fitness (ln) (30 °C): -4.45 ± 0.72

Sequence: CAUGAGCAAUAUUACGUCCC
- self-splicing fitness (ln) (37 °C): -2.03 ± 1.1

Sequence: GAGGAGCAAUAUUACGUCGC
- self-splicing fitness (ln) (30 °C): -2.26 ± 0.63

Sequence: GGCUAGCAAUAUUACGGGCC
- self-splicing fitness (ln) (30 °C): -2.51 ± 0.56

Sequence: UUGGAGCAAUAUUACGCAUC
- self-splicing fitness (ln) (37 °C): -0.529 ± 0.61

Sequence: UUGGAGCAAUAUUACGAGAC
- self-splicing fitness (ln) (30 °C): -3.74 ± 0.62

Sequence: CGGGAGCAAUAUUACGGACU
- self-splicing fitness (ln) (37 °C): -4.18 ± 1

Sequence: CUUCAGCAAUAUUACGUACA
- self-splicing fitness (ln) (30 °C): -2.87 ± 0.63
